Experimental data taken from PubChem BioAssay AID2685 (National Center for Advancing Translational Sciences (NCATS), 2010).
“And” between values parts separate entries of the source, which are not always exact repeats. Identical values can stand only once. Some of the results follow. The main result of the screen is listed elsewhere. These columns were measured beside it and carry no call. Most of these compounds were active or inconclusive in the main read-out, so they are no random draw. Potencies come from curve fits of mixed quality, noted in brackets.

Experiment: qHTS Assay for Lipid Storage Modulators in Drosophila S3 Cells;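 as to cell number change: cells counted by Cell Tracker Red CMTPX staining in the red channel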
Conditions: BODIPY lipid droplet fluorescence, 18-24 h; for cell number change: measured here: cell count max response, cells fed with added oleic acid
Summary of the method: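 Laser-scanning cytometry quantifies lipid droplet accumulation (500–530 nm total intensity; droplet/cell object ratio) in oleic acid-fed (400 uM added) Drosophila S3 cells treated with a concentration series. 20 uM Triacsin C defined 100% inhibition.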

[1] = measured here: lipid fluorescence (Fed channel) AC50, cells fed with added oleic acid
[2] = measured here: cell number channel AC50, cells fed with added oleic acid

| SMILES | cell number change | AC50 [1] | AC50 [2] |
| --- | --- | --- | --- |
| CCN1CCN(S(=O)(=O)c2ccc(Cl)c(C(=O)N(CC)CC(=O)Nc3ccc(OC)cc3)c2)CC1 | -9.19% | 2.59 µM [rising, single point] |  |
| COc1cc(-c2[nH]ncc2CN2CCN(c3cccc(C)n3)CC2)cc(OC)c1OC | -25.2% |  |  |
| CCCN1Cc2cccc(C(=O)Nc3ccc(CC)cc3)c2C1=O |  | 0.651 µM [rising, partial curve, poor fit] | 0.82 µM [rising, full curve] |
| COc1ccc2c(c1OC)C(=O)OC2C1c2c(cc3c(c2OC)OCO3)CCN1C (stereo not given) | 21.4% and 25.7% | 16.4 µM [rising, single point] and 2.31 µM [rising, partial curve] |  |
| CCOC(=O)c1sc2cc([N+](=O)[O-])cc(SCC(C)C)c2c1N | -18.5% | 2.31 µM [falling, full curve, poor fit] | 1.64 µM [falling, single point] |
| Cc1ccc(S(=O)(=O)NC(=O)COc2cc(C)ccc2C(C)C)cc1 |  | 29.1 µM [falling, single point] |  |
| COc1cccc(/C=C/C(=O)OCC(=O)NCC2CCCCC2)c1OC | -32.8% |  | 20.6 µM [falling, single point] |
| COc1ccc(C(=O)Nc2ccccc2C(=O)N2CCCCCC2)cc1 | 22.4% | 3.98 µM [falling, full curve] |  |
| Cc1nn(C)c(C(=O)NNC(=O)NC2CCCCC2)c1Cl | -18.2% |  |  |
| CC(CCN1C(Nc2ccccc2)=NC[C@@H]1Cc1ccccc1)c1ccccc1 (stereo not given in full) | 5.99% | 0.231 µM [falling, partial curve] |  |
| O=C1CCc2cc(S(=O)(=O)Nc3ccc(F)cc3)cc3c2N1CC3 | 12.1% |  |  |
| CC(=O)Nc1cccc(Oc2cc(C#N)c(C#N)cc2N2CCOCC2)c1 | -16.5% | 20.6 µM [falling, partial curve, poor fit] |  |
| COC(=O)[C@H]1[C@H]2C[C@H]3c4[nH]c5ccccc5c4CCN3C[C@@H]2CC[C@@H]1O | 4.92% | 6.51 µM [rising, single point] |  |
| CC(=O)O[C@H]1CC[C@@]2(C)C(=CC[C@H]3[C@@H]4CC[C@H](C5(C)OCCO5)[C@@]4(C)CC[C@@H]32)C1 | -12.7% | 29.1 µM [rising, single point] |  |
| Cc1ccc(C)c(N(CC(N)=O)S(C)(=O)=O)c1 | -3.17% | 0.0411 µM [falling, full curve] |  |
| Cc1ccc(CNc2cc(C(=O)O)ccc2Cl)s1 | 10.6% | 23.1 µM [rising, single point] |  |
| COC(=O)c1ccc(C(=O)OC)c(NC(=O)COC(=O)C2CCC(C(C)(C)C)CC2)c1 (stereo not given) |  | 2.06 µM [rising, partial curve] | 2.06 µM [rising, partial curve] |
| O=C1c2ccccc2C(=O)N1CCCCN(C(=O)c1ccc(Cl)s1)c1ccc(Cl)cc1 | -29.4% | 29.1 µM [falling, single point] | 3.66 µM [falling, single point] |

| SMILES | cell number change | AC50 [1] | AC50 [2] |
| --- | --- | --- | --- |
| Cc1cccn2c(=O)c(C=O)c(N3CCSCC3)nc12 | -0.961% | 0.731 µM [falling, single point] |  |
| CS(=O)(=O)c1ccc(NCCN2CCOCC2)c([N+](=O)[O-])c1 | -11.1% | 29.1 µM [rising, single point] | 5.17 µM [rising, single point] |
| O=C(Cn1nc(C(F)F)cc1C(F)F)NNC(=S)Nc1ccc([N+](=O)[O-])cc1 | 0.839% | 1.84 µM [falling, partial curve] |  |
| CC1(NC(=O)CSc2nnc(-c3ccco3)n2Cc2ccccc2)CCS(=O)(=O)C1 (stereo not given) | 5.84% | 4.61 µM [falling, full curve, poor fit] |  |
| CCCCN(C(=O)CSc1nnc(Nc2ccc(C)c(C)c2)s1)c1c(N)n(Cc2ccccc2)c(=O)[nH]c1=O |  | 4.61 µM [falling, partial curve, poor fit] |  |
| Cc1cccc(C(=O)Nc2nnc(S(=O)(=O)N(C)Cc3ccco3)s2)c1 |  | 2.59 µM [falling, single point] |  |
| CCOCCCNC(=O)Cc1cc(=O)[nH]c(=O)[nH]1 | -61.6% |  | 23.1 µM [falling, single point] |
| CCOC(=O)c1cn(-c2ccccc2CO)c2c(F)c(F)c(F)cc2c1=O | 9.63% | 1.84 µM [rising, partial curve] |  |
| O=S(=O)(Nc1cccc(-n2cnnn2)c1)c1cc(Cl)ccc1Cl | 2.14% | 29.1 µM [falling, partial curve, poor fit] | 0.82 µM [rising, full curve, poor fit] |
| CCCN1C[C@H](CSC)C[C@@H]2c3cccc4[nH]cc(c34)C[C@H]21 | 2.4% |  |  |
| Cc1nn(CC(=O)Nc2ccc(C(C)C)cc2)c(C)c1[N+](=O)[O-] | 2.34% | 0.794 µM [rising, single point] | 0.891 µM [rising, single point] |
| Cc1ccc(N(C(=O)C2CCC(=O)N2)C2(C(=O)NC3CCCC3)CCCCC2)cc1 (stereo not given) | -48.5% | 23.1 µM [falling, partial curve] | 3.26 µM [falling, full curve] |
| Cc1[nH]c2ccccc2c1C(=O)C(C)OC(=O)C1CCC1 (stereo not given) | -33.7% | 0.366 µM [falling, single point] | 18.4 µM [falling, single point] |
| O=C(Nc1ccccc1)c1cccc(N2C(=O)C3C4CC(C(Br)C4Br)C3C2=O)c1 (stereo not given) | -66.6% | 10 µM [falling, partial curve] | 10 µM [falling, partial curve] |
| COCCCn1c(C(=O)NCCN2CCOCC2)cc2c(=O)n3ccccc3nc21 |  | 4.11 µM [falling, full curve] |  |
| CCOC(=O)c1ccc2c(c1)nc(SCc1cn3ccsc3n1)n2CC | -20.4% | 16.4 µM [falling, single point] |  |
| O=C(CCNC(=O)c1ccccc1Cl)NCCC1=CCCCC1 | 3.74% | 1.16 µM [falling, partial curve] |  |
